Results published in PubChem BioAssay AID504444 (National Center for Advancing Translational Sciences (NCATS), 2011).
The whole screen tested about 360,000 compounds, of which about 7,500 (2.1%) were called active. This list was built around the results that the source calls inconclusive (neither active nor inactive); the mix of calls is not that of the screen. The call rests on the fitted dose curve; in most records, active means well fitted inhibition curve with a large enough effect; inconclusive means small, poorly fitted or top-dose-only effect, or effect the other way; inactive means flat fitted curve, though single readings scatter. A potency beside an inconclusive call is a rough fit, not a confirmed value.

assay: Nrf2 qHTS screen for inhibitors; details: A549 ARE-Fluc reporter, luciferase luminescence, 18-24 h; series mostly up to 46 µM; further: nearly all actives have a fitted effect of over 60% in size
In short: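 Reporter: ARE-Fluc in A549. Exposure: 18-24 h, 37 °C, 5% CO2, 5% FBS OPTI-MEM. Readouts: fluorescent cytotoxicity (CellTiter-Fluor), then luminescent Nrf2 signal after BugLite.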
Potency means the concentration at half of the fitted maximal effect.

Row | SMILES | Potency
1 | O=C(CCc1nc2ccccc2c(=O)[nH]1)NCCN1C(=O)S/C(=C\c2ccccc2Cl)C1=O | inconclusive: 32.6 µM [falling, single point]
2 | Cc1cc2ccccn2c1C(=O)c1cccc(S(=O)(=O)N2CCOCC2)c1 | inconclusive: 11.6 µM [falling, single point]
3 | N/C(=N\OC(=O)c1cccc(C(F)(F)F)c1)c1cnccn1 | inconclusive: 3.26 µM [activator, full curve, poor fit]
4 | CN(CCOc1ccc(Cl)cc1)C(=O)c1cccc(S(=O)(=O)N2CCN(Cc3ccccc3)CC2)c1 | active: 8.2 µM
5 | Cc1nc2cccnc2n1-c1cccc(C(=O)NCc2ccc(OC(C)C)cc2)c1 | inconclusive: 10.3 µM [falling, partial curve, poor fit]
6 | COc1cc(NS(=O)(=O)c2ccc(NC(=O)C(C)Oc3ccc(Cl)cc3Cl)cc2)nc(OC)n1 (stereo unspecified) | inconclusive: 20.6 µM [falling, partial curve]
7 | COc1ccccc1C(CC(=O)N1CCCC1)c1ccc2c(c1)OCO2 (stereo unspecified) | inconclusive: 29.1 µM [falling, single point]
8 | Cc1ccc(CNC(=O)CCCCn2c(=O)[nH]c3ccsc3c2=O)cc1 | inconclusive: 29.1 µM [falling, single point]
9 | C(=N\Nc1nncc2ccccc12)/c1ccccc1 | inconclusive: 9.2 µM [activator, partial curve, poor fit]
10 | Cc1cc(=O)n2[nH]c(SCc3c(F)cccc3Cl)nc2n1 | inconclusive: 29.1 µM [falling, single point]
11 | COc1cc(Cn2c(N)c(C#N)c3nc4ccccc4nc32)cc(OC)c1 | inactive
12 | Cc1noc(C)c1CSc1nc2ccccc2s1 | inconclusive: 10.3 µM [activator, partial curve, poor fit]
13 | COc1cccc(N=Nc2c(N)[nH][nH]c2=O)c1 | inactive
14 | CCOC(=O)c1ccc(S(=O)(=O)N2CCN(c3nc(-c4ccccc4)nc4ccccc34)CC2)cc1 | inconclusive: 25.9 µM [activator, partial curve, poor fit]
15 | COc1cc(-c2cc(C(=O)Nc3ccc(C)c(S(=O)(=O)N4CCOCC4)c3)c3ccccc3n2)cc(OC)c1OC | inactive
16 | CCCn1c(C2CCCN2c2nc(-c3cccc(Br)c3)cs2)nc2ccccc21 (stereo unspecified) | inactive
17 | O=C(Cn1cccc1)Nc1ccc(OC(F)(F)F)cc1 | inconclusive: 5.8 µM [falling, partial curve, poor fit]
18 | Cc1ccc2nc(/C(C#N)=C/c3cccc(Br)c3)[nH]c2c1 | inconclusive: 29.1 µM [falling, single point]
19 | Cc1ccc2c(C)nc(N/C(N)=N/S(=O)(=O)c3ccc([N+](=O)[O-])cc3)nc2c1 | inconclusive: 3.66 µM [falling, full curve, poor fit]
20 | O=C(Cc1csc2ccccc12)NCc1cccc(Br)c1 | inconclusive: 23.1 µM [activator, partial curve]
21 | COc1ccc(CCNC(=O)c2ccc(NC(=O)CC3SC(N4CCCCC4)=NC3=O)cc2)cc1OC (stereo unspecified) | inactive
22 | Cc1ccccc1CN1CCC(CNc2ncnc3onc(-c4ccc(Cl)cc4)c23)CC1 | inconclusive: 25.9 µM [activator, partial curve]

Row | SMILES | Potency
23 | NC(=O)c1ccccc1N=Cc1cccnc1 | inactive
24 | C(=NN1CCCCCC1)c1cccc2ccccc12 | inconclusive: 20.6 µM [activator, partial curve]
25 | Cc1ccc(NC(=O)C2CCCN(c3ncnc4c3nc3n4CCCCC3)C2)cc1F (stereo unspecified) | inconclusive: 29.1 µM [falling, single point]
26 | Cc1ccc(NS(=O)(=O)c2cccc(C(=O)N3CCCCC3)c2)cc1 | inactive
27 | COc1ccccc1C(=O)CN1C(=O)NC2(CCCCCC2)C1=O | inconclusive: 6.51 µM [activator, partial curve]
28 | CCN(C(=O)/C=C/c1ccc2c(c1)OCO2)c1ccccc1 | inconclusive: 25.9 µM [activator, single point]
29 | COc1ccc(S(=O)(=O)N2CCN(CC(=O)N3c4ccccc4CC3C)CC2)cc1OC (stereo unspecified) | inconclusive: 4.61 µM [activator, single point]
30 | O=C(Cc1ccc(Cl)cc1)Nc1ccc(N2CCN(C(=O)c3ccco3)CC2)c(Cl)c1 | inconclusive: 29.1 µM [falling, single point]
31 | N#Cc1ccc(CSc2nnc(-c3ccncc3)n2CCc2ccccc2)cc1 | inconclusive: 20.6 µM [falling, partial curve, poor fit]
32 | O=C(Nc1ccc(CN2CCOCC2)cc1)c1cc2ccccn2n1 | inconclusive: 29.1 µM [falling, single point]
33 | CSc1nc(N)nc2c1ncn2CC(=O)NCc1ccc2c(c1)OCO2 | inconclusive: 9.2 µM [falling, partial curve, poor fit]
34 | Cc1cc(C)cc(N=c2c([N+](=O)[O-])nn(-c3ccc4c(c3)OCCO4)n2O)c1 | inconclusive: 23.1 µM [falling, single point]
35 | Cc1nc(C(=O)NNC(=O)c2ccccc2)c(C(F)(F)F)o1 | inconclusive: 23.1 µM [falling, single point]
36 | N/C(=N\OC(=O)c1cccc(Cl)c1)c1ccncc1 | inactive
37 | CC(Sc1nc2sc3c(c2c(=O)n1-c1ccccc1)CCCC3)C(=O)O (stereo unspecified) | inconclusive: 23.1 µM [falling, partial curve, poor fit]
38 | Cc1c(Cl)cccc1NC(=O)C(=O)NNC(=O)c1ccccc1F | inconclusive: 25.9 µM [falling, single point]
39 | CCCCC1(C)NC(=O)N(CC(=O)Nc2ccc(S(=O)(=O)N3CCOCC3)cc2)C1=O (stereo unspecified) | inconclusive: 23.1 µM [activator, single point]
40 | COc1ccc(S(=O)(=O)n2nc(OC(C)=O)cc2N)cc1 | inactive
41 | COc1ccc(N2CCN(C(=O)CCS(=O)(=O)c3ccc(OC)cc3)CC2)cc1 | inconclusive: 29.1 µM [falling, single point]
42 | COc1ccc(-c2csc3nc(-c4ccccc4OC)oc(=O)c23)cc1 | inconclusive: 18.4 µM [activator, single point]
43 | CC1(C)Cc2c(cnn2-c2ccc(F)cc2)C(NC(=O)c2ccco2)C1 (stereo unspecified) | inactive
44 | CCOc1ccc2c(c1)-c1c(ssc1=S)C(C)(C)N2C(=O)c1ccco1 | inconclusive: 13 µM [falling, partial curve]

Three records drawn at random from those above, as already listed:
Row | SMILES | Potency
25 | Cc1ccc(NC(=O)C2CCCN(c3ncnc4c3nc3n4CCCCC3)C2)cc1F (stereo unspecified) | inconclusive: 29.1 µM [falling, single point]
37 | CC(Sc1nc2sc3c(c2c(=O)n1-c1ccccc1)CCCC3)C(=O)O (stereo unspecified) | inconclusive: 23.1 µM [falling, partial curve, poor fit]
44 | CCOc1ccc2c(c1)-c1c(ssc1=S)C(C)(C)N2C(=O)c1ccco1 | inconclusive: 13 µM [falling, partial curve]

Following part:

Row | SMILES | Potency
45 | COc1ccc(NCc2nc3ccccc3n2C)cc1 | inconclusive: 5.8 µM [activator, partial curve]
46 | C=CCn1c(O)c(N=NC(=S)Nc2cccc(C)c2)c2ccccc21 | inconclusive: 14.6 µM [falling, single point]
47 | O=C(COC(=O)c1cc(=O)[nH]c2ccccc12)c1cccs1 | inconclusive: 32.6 µM [activator, partial curve, poor fit]
48 | Cc1ncoc1C(=O)N1CCCC(C(=O)c2ccc(-c3ccccc3)cc2)C1 (stereo unspecified) | inconclusive: 29.1 µM [falling, single point]
49 | CC(C)=CC(=O)O[C@@H]1Cc2cc3ccc(=O)oc3cc2OC1(C)C | inconclusive: 29.1 µM [falling, single point]
50 | O=C1Cc2c([nH]c3ccc(Br)cc23)-c2ccccc2N1 | inconclusive: 0.92 µM [activator, full curve, poor fit]
51 | Cc1ccccc1Cn1nc(C)c(NC(=O)c2noc3c2CC(C(C)(C)C)CC3)c1C (stereo unspecified) | active: 8.2 µM
52 | Cc1cccc(-n2ncc3c2CCCC3NC(=O)Cc2c(C)noc2C)c1C (stereo unspecified) | active: 8.2 µM
53 | CC(C)(C)OC(=O)N/N=C\c1ccc(OC(=O)c2ccco2)cc1 | inconclusive: 2.59 µM [activator, full curve]
54 | Cc1ccc(C(=O)NC(NC(=O)c2ccc(C)cc2)C(Cl)Cl)cc1 | inconclusive: 25.9 µM [falling, single point]
55 | c1ccc(Nc2nc(-c3ccccn3)cs2)cc1 | inconclusive: 3.66 µM [activator, full curve]
56 | COc1cccc(CC(NC(C)=O)C(=O)NC2CCN(c3nc(C)cc(C)c3C#N)CC2)c1 (stereo unspecified) | inactive
57 | COc1cccc(NC(=O)c2ccn(C)n2)c1 | inconclusive: 8.2 µM [activator, partial curve]
58 | CN(C(=O)C1CCCN(c2ncnc3c2nc2n3CCCCC2)C1)c1cccc(Cl)c1 (stereo unspecified) | inconclusive: 18.4 µM [falling, partial curve, poor fit]
59 | N/C(=N\OC(=O)/C=C/c1ccccc1)c1ccc(Cl)cc1 | inactive
60 | COCCCNC(=O)c1ccc2nc(Cc3ccc(OC)cc3)oc2c1 | inconclusive: 3.26 µM [activator, full curve]
61 | NC(=O)Cn1nnc(-c2ccc(NC(=O)c3ccc(F)cc3)cc2)n1 | inconclusive: 3.66 µM [activator, full curve]
62 | Cc1ccc(C(=O)/C=C/c2ccc3c(c2)OCCO3)c(O)c1 | inactive
63 | CCn1c(=O)c(-[n+]2ccccc2)c(O)c2ccccc21 | inconclusive: 0.259 µM [falling, full curve, poor fit]
64 | COc1cc(-c2nc(C(=O)NCC3CCCO3)cc3c2[nH]c2ccccc23)cc(OC)c1OC (stereo unspecified) | inconclusive: 18.4 µM [falling, single point]
65 | CCOc1cc(CNc2ccc(CNc3ncn[nH]3)cc2)ccc1OCc1ccccc1 | inconclusive: 23.1 µM [falling, single point]
66 | CCCOc1ccc(C(=O)Nc2ccc(CN3CCOCC3)cc2)cc1 | inconclusive: 29.1 µM [falling, single point]

Reformatted with tabs: entries from further up.
Row	SMILES	Potency
10	Cc1cc(=O)n2[nH]c(SCc3c(F)cccc3Cl)nc2n1	inconclusive: 29.1 µM [falling, single point]
11	COc1cc(Cn2c(N)c(C#N)c3nc4ccccc4nc32)cc(OC)c1	inactive
